No constants are given. Whether binding was seen depends on the method and setting. In cells and extracts the contact can be indirect. Some binding calls cover weakened binding; strength is not graded here. For some of these results: Where a sequence is shown, tags or fusion partners need not be part of it.
Key:
Assay in all cases: co-IP
GFP-Rab11a = GFP-Rab11a (UniProt P62491)
GFP-Rab3a = biological target: T1, GFP-Rab3a (UniProt P20336)
T1 sequence: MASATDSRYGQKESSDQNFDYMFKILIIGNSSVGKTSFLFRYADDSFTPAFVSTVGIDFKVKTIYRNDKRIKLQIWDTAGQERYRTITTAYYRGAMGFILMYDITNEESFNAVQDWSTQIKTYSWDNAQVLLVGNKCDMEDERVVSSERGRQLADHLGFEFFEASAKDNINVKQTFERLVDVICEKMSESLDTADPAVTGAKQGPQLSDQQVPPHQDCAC

Amino acid sequences for entries named in this document (tags omitted).
UniProt P62491: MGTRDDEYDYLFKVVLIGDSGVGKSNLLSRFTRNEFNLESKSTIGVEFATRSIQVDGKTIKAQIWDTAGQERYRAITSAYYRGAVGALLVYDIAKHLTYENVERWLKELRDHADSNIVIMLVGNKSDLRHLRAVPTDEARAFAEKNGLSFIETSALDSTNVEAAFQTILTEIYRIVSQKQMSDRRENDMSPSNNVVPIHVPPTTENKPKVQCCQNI
UniProt Q96A65: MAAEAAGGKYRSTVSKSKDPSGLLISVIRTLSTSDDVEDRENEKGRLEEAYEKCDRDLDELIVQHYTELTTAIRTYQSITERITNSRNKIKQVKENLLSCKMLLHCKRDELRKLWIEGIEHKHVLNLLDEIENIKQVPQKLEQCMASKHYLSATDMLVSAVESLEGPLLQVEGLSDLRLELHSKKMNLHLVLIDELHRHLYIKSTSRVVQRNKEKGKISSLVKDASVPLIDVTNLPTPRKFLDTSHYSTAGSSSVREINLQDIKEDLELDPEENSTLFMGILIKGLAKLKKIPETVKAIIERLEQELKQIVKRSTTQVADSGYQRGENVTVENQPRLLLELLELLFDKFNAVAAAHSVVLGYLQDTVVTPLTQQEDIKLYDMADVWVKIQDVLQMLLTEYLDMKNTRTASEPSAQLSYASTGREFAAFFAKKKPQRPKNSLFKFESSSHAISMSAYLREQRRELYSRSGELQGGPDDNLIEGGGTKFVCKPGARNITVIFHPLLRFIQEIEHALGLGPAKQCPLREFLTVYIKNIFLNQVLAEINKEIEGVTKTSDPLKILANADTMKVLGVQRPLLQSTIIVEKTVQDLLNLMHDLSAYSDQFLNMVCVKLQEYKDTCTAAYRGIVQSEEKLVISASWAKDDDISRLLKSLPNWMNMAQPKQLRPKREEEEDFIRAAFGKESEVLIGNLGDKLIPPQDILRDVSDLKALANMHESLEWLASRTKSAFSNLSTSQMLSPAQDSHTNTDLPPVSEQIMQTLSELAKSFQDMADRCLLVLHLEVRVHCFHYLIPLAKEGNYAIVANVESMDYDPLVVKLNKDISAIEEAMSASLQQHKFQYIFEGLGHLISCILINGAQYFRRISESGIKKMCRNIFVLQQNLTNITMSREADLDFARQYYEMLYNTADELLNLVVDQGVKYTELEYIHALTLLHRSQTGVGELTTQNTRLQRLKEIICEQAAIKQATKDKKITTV
UniProt Q9UPT5: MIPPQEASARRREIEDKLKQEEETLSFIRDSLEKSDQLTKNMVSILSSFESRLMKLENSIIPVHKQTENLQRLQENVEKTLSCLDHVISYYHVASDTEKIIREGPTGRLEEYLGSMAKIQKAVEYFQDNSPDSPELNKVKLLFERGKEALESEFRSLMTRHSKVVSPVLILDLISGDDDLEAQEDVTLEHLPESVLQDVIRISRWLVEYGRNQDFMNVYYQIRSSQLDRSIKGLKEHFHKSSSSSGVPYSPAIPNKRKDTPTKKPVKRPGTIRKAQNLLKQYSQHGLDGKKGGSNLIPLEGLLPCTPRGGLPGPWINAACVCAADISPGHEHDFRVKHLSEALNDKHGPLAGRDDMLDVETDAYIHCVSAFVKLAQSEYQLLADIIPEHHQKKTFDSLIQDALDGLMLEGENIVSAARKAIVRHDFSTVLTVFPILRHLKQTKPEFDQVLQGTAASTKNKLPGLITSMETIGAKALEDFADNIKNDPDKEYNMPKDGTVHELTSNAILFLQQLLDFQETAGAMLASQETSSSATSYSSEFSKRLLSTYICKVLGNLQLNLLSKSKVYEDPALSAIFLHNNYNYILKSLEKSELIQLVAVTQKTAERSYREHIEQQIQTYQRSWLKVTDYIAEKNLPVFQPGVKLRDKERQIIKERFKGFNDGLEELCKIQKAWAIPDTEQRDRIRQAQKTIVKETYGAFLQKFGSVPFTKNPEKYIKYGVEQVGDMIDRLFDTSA
UniProt Q8TAG9: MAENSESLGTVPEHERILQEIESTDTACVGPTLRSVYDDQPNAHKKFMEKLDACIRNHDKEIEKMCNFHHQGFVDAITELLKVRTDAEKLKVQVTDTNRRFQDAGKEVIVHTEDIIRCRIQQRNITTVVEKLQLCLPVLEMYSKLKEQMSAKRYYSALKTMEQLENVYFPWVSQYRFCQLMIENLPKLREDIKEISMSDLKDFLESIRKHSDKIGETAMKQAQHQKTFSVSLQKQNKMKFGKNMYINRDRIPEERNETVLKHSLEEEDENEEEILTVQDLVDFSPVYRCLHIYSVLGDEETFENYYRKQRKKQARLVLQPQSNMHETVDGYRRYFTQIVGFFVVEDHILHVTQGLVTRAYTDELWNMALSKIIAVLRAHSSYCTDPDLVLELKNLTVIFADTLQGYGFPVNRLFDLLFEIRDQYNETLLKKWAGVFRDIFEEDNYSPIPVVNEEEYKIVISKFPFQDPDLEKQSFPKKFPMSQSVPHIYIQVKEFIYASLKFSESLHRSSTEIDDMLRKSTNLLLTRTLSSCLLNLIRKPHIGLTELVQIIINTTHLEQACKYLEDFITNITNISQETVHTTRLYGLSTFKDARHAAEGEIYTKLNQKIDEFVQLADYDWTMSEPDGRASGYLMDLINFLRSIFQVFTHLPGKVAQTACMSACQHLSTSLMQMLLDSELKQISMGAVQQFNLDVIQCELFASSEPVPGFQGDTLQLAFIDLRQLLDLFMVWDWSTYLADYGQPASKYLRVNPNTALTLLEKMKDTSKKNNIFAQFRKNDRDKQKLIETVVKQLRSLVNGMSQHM

wild-type (WT) GRAB-GFP = biological target: T2, wild-type (WT) GRAB-GFP (UniProt Q8TBN0)
T2 sequence: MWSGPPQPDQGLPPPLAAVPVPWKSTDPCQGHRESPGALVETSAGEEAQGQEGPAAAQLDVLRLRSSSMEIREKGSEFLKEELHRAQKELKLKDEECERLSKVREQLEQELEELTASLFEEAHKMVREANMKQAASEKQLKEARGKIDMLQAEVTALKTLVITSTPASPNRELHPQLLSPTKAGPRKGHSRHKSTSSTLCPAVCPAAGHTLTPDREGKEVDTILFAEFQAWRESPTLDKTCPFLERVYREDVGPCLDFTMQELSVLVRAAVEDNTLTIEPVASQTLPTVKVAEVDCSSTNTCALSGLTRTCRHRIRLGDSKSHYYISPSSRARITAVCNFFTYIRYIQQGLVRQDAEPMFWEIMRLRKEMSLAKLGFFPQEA

mCherry-Rab11a = mCherry-Rab11a (UniProt P62491)

In the case of Sec8 (from UniProt Q96A65 1-974), the binding (GFP-Rab11a) is reported as “binds”.

Exo70 (from UniProt Q9UPT5 1-735) was tested, and the binding (GFP-Rab11a) was “binds”.

With Sec15a-myc (from UniProt Q8TAG9 1-804) the binding (GFP-Rab11a) was “binds”.

In the case of “mCherry-Rab11a (from UniProt P62491 1-216)”, the binding (GFP-Rab3a) is reported as “binds” and the binding (wild-type (WT) GRAB-GFP) is reported as “binds”.

B1: GFP-Rab3a (protein, UniProt P20336 1-220)
chain: T1 sequence
With B1 the binding (mCherry-Rab11a) was “binds”.

B2: wild-type (WT) GRAB-GFP (protein, UniProt Q8TBN0 1-382)
chain: T2 sequence
With B2 the binding (mCherry-Rab11a) was “binds”.

Source: article doi:10.1101/2021.03.06.434066
